From patent publication US20230192861A1

Amino acid sequences for entries named in this document (tags omitted). A change or cut given only in a name is not applied to a line headed by its entry.
UniProt Q5ZPR3: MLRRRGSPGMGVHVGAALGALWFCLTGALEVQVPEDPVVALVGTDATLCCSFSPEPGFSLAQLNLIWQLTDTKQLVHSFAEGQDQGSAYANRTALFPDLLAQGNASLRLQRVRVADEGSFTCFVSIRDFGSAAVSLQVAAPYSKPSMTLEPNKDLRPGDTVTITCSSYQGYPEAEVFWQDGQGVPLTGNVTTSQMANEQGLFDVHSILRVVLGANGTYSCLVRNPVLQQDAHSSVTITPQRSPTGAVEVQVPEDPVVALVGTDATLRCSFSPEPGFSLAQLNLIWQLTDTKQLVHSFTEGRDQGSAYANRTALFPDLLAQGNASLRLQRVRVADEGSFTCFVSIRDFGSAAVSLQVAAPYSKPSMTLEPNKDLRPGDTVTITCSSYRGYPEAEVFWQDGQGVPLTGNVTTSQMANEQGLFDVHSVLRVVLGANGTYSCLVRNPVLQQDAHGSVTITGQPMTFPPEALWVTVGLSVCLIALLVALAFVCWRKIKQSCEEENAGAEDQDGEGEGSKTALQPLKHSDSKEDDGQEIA

Biological target: recombinant human B7-H3 protein with C-terminal histidine tag (R&D Systems 2318-B3/CF) (human) (UniProt Q5ZPR3)
Assay: ELISA of soluble scFv on coated B7-H3-His; clones with absorbance at 450 nm of 1.0 or more

Binder	binding
B5 soluble monoclonal scFv (phage library clone) (scFv, V domains shown) VH: EVQLLESGGGLVQPGGSLRLSCAASGFTFSDYAMSWVRQAPGKGLEWVSSISSGSGSIYYADSVKGRFTISRDNSKNTLYLQMNSLRAEDTAVYYCAKNLIPLDYWGQGTLVTVSS VL: QSVLTQPPSASGTPGQRVTISCSGSSSNIGSNAVSWYQQLPGTAPKLLIYYNSHRPSGVPDRFSGSKSGTSASLAISGLRSEDEADYYCGSWDASLNAYVFGGGTKLTVL	binds
D8G soluble monoclonal scFv (phage library clone) (scFv, V domains shown) VH: EVQLLESGGGLVQPGGSLRLSCAASGFTFSSYSMSWVRQAPGKGLEWVSGIYSDGSNTYYADSVKGRFTISRDNSKNTLYLQMNSLRAEDTAVYYCAKMLHRFDYWGQGTLVTVSS VL: QSVLTQPPSASGTPGQRVTISCSGSSSNIGSNSVTWYQQLPGTAPKLLIYADSQRPSGVPDRFSGSKSGTSASLAISGLRSEDEADYYCGTWDSSLNAYVFGGGTKLTVL	binds
D8G M3 soluble monoclonal scFv (phage library clone) (scFv, V domains shown) VH: EVQLLESGGGLVQPGGSLRLSCAASGFTFSSYSMSWVRQAPGKGLEWVSGIYSDASNTYYADSVKGRFTISRDNSKNTLYLQMNSLRAEDTAVYYCAKMLHRFDYWGQGTLVTVSS VL: QSVLTQPPSASGTPGQRVTISCSGSSSNIGSNSVTWYQQLPGTAPKLLIYADVQRPSGVPDRFSGSKSGTSASLAISGLRSEDEADYYCGTWDSSLNAYVFGGGTKLTVL	binds
F6V soluble monoclonal scFv (phage library clone) (scFv, V domains shown) VH: EVQLLESGGGLVQPGGSLRLSCAASGFTFSDYAMSWVRQAPGKGLEWVSGISPGGSNTYYADSVKGRFTISRDNSKNTLYLQMNSLRAEDTAVYYCAKDAWIARLLLFDYWGQGTLVTVSS VL: QSVLTQPPSASGTPGQRVTISCSGSSSNIGSNAVTWYQQLPGTAPKLLIYYNNKRPSGVPDRFSGSKSGTSASLAISGLRSEDEADYYCGTWDDSLSGYVFGGGTKLTVL	binds
10F11 soluble monoclonal scFv (phage library clone) (scFv, V domains shown) VH: EVQLLESGGGLVQPGGSLRLSCAASGFTFSSYGMSWVRQAPGKGLEWVSGIYSGGSSKYYADSVKGRFTISRDNSKNTLYLQMNSLRAEDTAVYYCAKNRLRFDYWGQGTLVTVSS VL: QSVLTQPPSASGTPGQRVTISCTGSSSNIGSNSVTWYQQLPGTAPKLLIYSDSHRPSGVPDRFSGSKSGTSASLAISGLRSEDEADYYCGTWDASLNAYVFGGGTKLTVL	binds
C4I soluble monoclonal scFv (phage library clone) (scFv, V domains shown) VH: EVQLLESGGGLVQPGGSLRLSCAASGFTFSGYYMSWVRQAPGKGLEWVSLISPSSGSIYYADSVKGRFTISRDNSKNTLYLQMNSLRAEDTAVYYCAKGLTKFDYWGQGTLVTVSS VL: QSVLTQPPSASGTPGQRVTISCTGSSSNIGSNDVSWYQQLPGTAPKLLIYANSHRPSGVPDRFSGSKSGTSASLAISGLRSEDEADYYCGSWDDSLSGYVFGGGTKLTVL	binds
D8G M1 soluble monoclonal scFv (phage library clone) (scFv, V domains shown) VH: EVQLLESGGGLVQPGGSLRLSCAASGFTFSSYSMSWVRQAPGKGLEWVSGIYSDASNTYYADSVKGRFTISRDNSKNTLYLQMNSLRAEDTAVYYCAKMLHRFDYWGQGTLVTVSS VL: QSVLTQPPSASGTPGQRVTISCSGSSSNIGSNSVTWYQQLPGTAPKLLIYADSQRPSGVPDRFSGSKSGTSASLAISGLRSEDEADYYCGTWDSSLNAYVFGGGTKLTVL	binds

No constants are given. Whether binding was seen depends on the method and setting. Binding can be weak; no strength is given.
